Assay results: PubChem BioAssay AID1961 (Sanford-Burnham Center for Chemical Genomics, 2009)
The list shows a part of the results. Some structures show a salt or complex split into parts, the way the source records it.

Experiment: GPR55 agonists via beta-arrestin recruitment, primary screen, imaging, U2OS cells, beta-arrestin-GFP redistribution (AID 1961);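 further: U2OS osteosarcoma cells stably expressing GPR55 and beta-arrestin-GFP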
Settings: measured here: cytotoxicity, cells analyzed, at 10 µM

Row | SMILES | cell count [cells]
1 | CCOc1ccc(C2=NCC(CBr)S2)cc1 (configuration not stated) | 387
2 | O=P1(Nc2nc3ccc(Cl)cc3s2)COc2ccccc2O1 (configuration not stated) | 372
3 | CC(C)c1ccc(OP(C)(=O)Nc2ccc(SC(F)(F)F)cc2)cc1 (configuration not stated) | 313
4 | CC(C)(C)C(=O)NC(Sc1ccccc1)C(Cl)(Cl)Cl (configuration not stated) | 270
5 | CP(=O)(Nc1ccccc1F)Oc1ccccc1 (configuration not stated) | 296
6 | C[C@H]1OP(=O)(Oc2ccccc2)C[C@@H]2O[C@@H]21 (some centres not stated) | 383
7 | C[C@@H]1C=CCP(=O)(Oc2ccccc2)O1 (some centres not stated) | 397
8 | O=C(OCCN1CCN(CCOCc2ccccc2)CC1)C(O)(c1ccccc1)c1ccccc1 | 337
9 | O=C(OC1CN2CCC1CC2)c1ccc([N+](=O)[O-])cc1 (configuration not stated) | 313
10 | CC(=O)c1ccc(N2CC2c2ccncc2)cc1 (configuration not stated) | 355
11 | CC(=O)Nc1ccc(Oc2c([N+](=O)[O-])cc([N+](=O)[O-])cc2[N+](=O)[O-])cc1 | 257
12 | CC(=O)Nc1ccc([As](=O)(O)O)c(O)c1 | 383
13 | COc1ccc2c(c1O)-c1c(O)c(OC)cc3c1[C@H](C2)[N+](C)(C)CC3.O=[N+]([O-])c1cc([N+](=O)[O-])c([O-])c([N+](=O)[O-])c1[O-] | 348
14 | CCOC(=O)NC(Sc1ccccc1)C(Cl)(Cl)Cl (configuration not stated) | 375
15 | Cc1ccc(NP(=O)(Oc2cccc(C)c2)Oc2cccc(C)c2)nc1 | 390
16 | c1ccc(-c2nn[nH]n2)c(-c2nn[nH]n2)c1 | 340

Row | SMILES | cell count [cells]
17 | CCNC(=S)/N=C(\N)N[N+](=O)[O-] | 397
18 | O=C(NC1CCS(=O)(=O)C1)NP(=S)(Oc1ccccc1)Oc1ccccc1 (configuration not stated) | 254
19 | COc1ccc(OP(C)(=O)Nc2ccc(SC(F)(F)F)cc2)cc1 (configuration not stated) | 261
20 | CCOC(=O)c1ccc(NP(C)(=O)Oc2ccc(F)cc2)cc1 (configuration not stated) | 389
21 | CCN(CC)CCCOC(=O)C(O)(c1ccccc1)C1CCCCC1 (configuration not stated) | 367
22 | CCC(=O)N1C2C3N(C(=O)CC)C1C1N(C(=O)CC)C(C(N1C(=O)CC)N3C(=O)CC)N2C(=O)CC | 395
23 | O=C(OC1CN2CCC1CC2)c1ccccc1 (configuration not stated) | 272
24 | Cc1ccc(OP(=O)(Nc2ccccn2)Oc2ccc(C)cc2)cc1 | 229
25 | CC(=O)NC(SC(=S)N(CC(C)C)CC(C)C)C(Cl)(Cl)Cl (configuration not stated) | 319
26 | COC(=O)c1cc2c(s1)N=C(c1ccccc1)N(C)P2(=O)N1CCOCC1 (configuration not stated) | 436
27 | CCCCCOc1ccc(NP(C)(=O)Oc2ccc(Cl)cc2Cl)cc1 (configuration not stated) | 373
28 | O=c1c2cc([N+](=O)[O-])ccc2[nH]c2c([N+](=O)[O-])cc([N+](=O)[O-])cc12 | 339
29 | O=[N+]([O-])c1cc([N+](=O)[O-])c(OC2CCCCC2O)c([N+](=O)[O-])c1 (configuration not stated) | 431
30 | CN(C)C(=O)Oc1noc2ccccc12 | 315
31 | Cc1ccccc1OP(=O)(Nc1ccccn1)Oc1ccccc1C | 336
32 | CP(=O)(Nc1ccccc1)Oc1ccc(F)cc1 (configuration not stated) | 379
